Laboratory results: the supplement of paper PMC3334620
In all, about 33,000 sequences were measured (“E-score (-0.5 to 0.5)”: median about -8e-05, highest 2% from about 0.23 on). The list shows a part of the results.

Target: T1, Nrg2 (UniProt P38082)
T1 sequence: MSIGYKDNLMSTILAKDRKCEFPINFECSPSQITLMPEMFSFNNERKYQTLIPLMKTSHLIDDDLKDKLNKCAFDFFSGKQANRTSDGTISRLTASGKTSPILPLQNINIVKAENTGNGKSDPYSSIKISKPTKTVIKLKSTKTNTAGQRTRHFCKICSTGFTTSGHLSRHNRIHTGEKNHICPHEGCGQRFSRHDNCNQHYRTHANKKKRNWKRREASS
Assay: PBM E-score (8-mer binding enrichment) (E-score (-0.5 to 0.5)); higher = stronger / more preferred TF binding
Settings: protein concentration: 100 nM; construct: GST-full length
Description: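 Universal 'all 10-mer' protein binding microarrays (Agilent AMADID 015681) probed with GST-tagged S. cerevisiae TFs (full-length or DBD) made by in vitro transcription/translation (PURExpress), about 100-200 nM. Bound TF was detected with fluorescent anti-GST. Each ungapped 8-mer (which stands for itself and its reverse complement) is scored by the PBM enrichment score (E-score), a modified Wilcoxon-Mann-Whitney statistic from -0.5 to +0.5, computed with the Universal PBM Analysis Suite. Scale: above 0.35 generally sequence-specific binding.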

Sequence | PBM E-score
GATAAGCC | -0.125
ACCCACCG | 0.016
CCGCTCCA | -0.0938
GTAATCAC | 0.0157
AGCGCACA | 0.137
ATCGGGAA | 0.183
CGTAGTTA | 0.0341
TACCCAGA | 0.142
CCGATCAG | -0.11
CACGCGTG | 0.198
CACCGAAC | -0.16
ACGTTAAT | 0.116
AACCGTAC | -0.178
CCCCGTTC | -0.0868
GCGGCCAA | -0.133
ATTCCTGG | 0.0563
ATTACTAG | 0.0374
GAAGGGGA | -0.0452
ACATGGGA | 0.146
GGCTTGTA | -0.0417
CCCGTAAA | 0.0385
CATATTAG | 0.124

Sequence | PBM E-score
AGGCTCCA | -0.252
GACCTTCC | -0.112
GTATGTAA | 0.0287
GACCGGTC | 0.00213
ACACGGAC | 0.0246
CACAATTA | 0.025
CACACACC | -0.13
CTCCGGCC | -0.297
CTCTCTCA | -0.0307
CATCTCAC | -0.0644
GTCACATA | -0.101
AACCGATC | -0.16
AGCACCAA | 0.0406
ACATCGTG | 0.00152
AAGGATTG | 0.0909
AAGTTTGT | -0.00229
CCATCCGC | 0.0584
CGGATCAC | 0.112
GCCTTACA | -0.264
TATGCTAA | -0.0727
CCACCGTC | -0.224
AGTAAGCG | 0.0471

Part of the list above in another layout.

| Sequence | PBM E-score |
| --- | --- |
| GATAAGCC | -0.125 |
| ACCCACCG | 0.016 |
| GTAATCAC | 0.0157 |
| CGTAGTTA | 0.0341 |
| TACCCAGA | 0.142 |
| CCGATCAG | -0.11 |
| CACCGAAC | -0.16 |
| AACCGTAC | -0.178 |
| CCCCGTTC | -0.0868 |
| GCGGCCAA | -0.133 |
| ATTACTAG | 0.0374 |
| CATATTAG | 0.124 |
| AGGCTCCA | -0.252 |
| GACCTTCC | -0.112 |
| GACCGGTC | 0.00213 |
| CACACACC | -0.13 |
| CTCCGGCC | -0.297 |
| CTCTCTCA | -0.0307 |
| ACATCGTG | 0.00152 |
| CCATCCGC | 0.0584 |
| CGGATCAC | 0.112 |
| GCCTTACA | -0.264 |
| CCACCGTC | -0.224 |
| AGTAAGCG | 0.0471 |

Remaining list, next part:

Sequence | PBM E-score
AAGTTCTC | 0.0924
CCCTTTAA | 0.109
TATACGGA | -0.0587
AGACAGCC | -0.141
CTGAACGA | -0.166
CACGCCTG | -0.146
AAGTACCG | -0.0239
CGCATTGC | 0.148
ATGCCGTA | 0.0168
ATCGAAGA | 0.193
CTCCTCTC | -0.123
GCCCCCAC | -0.384
CGTAATAA | 0.0437
TTCCACAA | 0.206
TACAGCCA | 0.0383
CGTATCGC | -0.0619
CGCACTAA | 0.0898
ACGAGGAC | -0.0285
AGGCGTGA | -0.174
CAAGGCAG | 0.0797
TGGCGTAA | -0.195
CCTCAAGG | -0.106

Sequence | PBM E-score
AAAGAGGC | -0.228
CGATCCAC | -0.0637
ATGCAGGC | -0.0578
ATTCCACC | 0.0335
AAGGGAAT | 0.0163
ACTGACAC | -0.0104
GAGCCGAA | 0.01
CCCACGAA | 0.197
CTTAGGAC | -0.204
AGTGTTTG | 0.174
TACTAGCA | 0.0982
TCCAGTAA | -0.0742
CTTCTCGC | 0.0525
CGGCTGAC | -0.0354
AGCTACAC | 0.0938
AGCGAACG | -0.156
GATACAGA | 0.13
CGGTTGCA | -0.119
ACGAATCG | 0.0934
CGGAGCCG | -0.161
